The data set in a line: solution-phase peptide synthesis; diphenylphosphorylazide. The conditions noted are these: whole synthesis.

We go through one substance from US4192875 (dated 1980).

On to “cyclo-[(L-1-Carboxymethyl-3-amino-2-piperidone)yl]3”, for which the isolated mass turned out to be 1.02 g. The substance also gave an isolated yield (scale of the general procedure 25.6 mmole) of 26%.
